These are yes or no findings as the source states them, for the method shown. In cells and extracts the contact can be indirect. Some entries that bind do so weakly or less than the wild type.
Target: RXRA protein (retinoid X receptor alpha), endogenous in HEK293 (human (endogenous in HEK293)) (UniProt P19793)
Experiment: co-IP; endogenous proteins; 2 mg HEK293 whole cell lysate with antibody covalently bound to agarose beads, overnight at 4 C, washed 3X with 1X lysis buffer; normal rabbit IgG as control; Western blot for VCP

Protein sequences, listed by entry. Tags and fused reporters are not part of them.
UniProt P19793: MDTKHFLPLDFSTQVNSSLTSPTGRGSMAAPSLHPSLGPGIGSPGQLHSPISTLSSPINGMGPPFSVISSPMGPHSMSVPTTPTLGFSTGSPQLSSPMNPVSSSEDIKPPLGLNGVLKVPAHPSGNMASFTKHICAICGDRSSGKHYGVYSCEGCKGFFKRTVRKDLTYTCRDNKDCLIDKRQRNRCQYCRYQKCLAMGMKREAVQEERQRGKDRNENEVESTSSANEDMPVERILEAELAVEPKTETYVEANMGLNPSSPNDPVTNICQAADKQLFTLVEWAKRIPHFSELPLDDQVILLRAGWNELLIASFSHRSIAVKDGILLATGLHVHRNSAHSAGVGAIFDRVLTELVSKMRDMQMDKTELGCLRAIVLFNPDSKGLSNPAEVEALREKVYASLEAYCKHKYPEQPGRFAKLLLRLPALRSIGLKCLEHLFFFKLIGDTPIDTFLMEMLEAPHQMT

With “valosin-containing protein (VCP/p97/Cdc48), endogenous in HEK293 (from UniProt P55072 1-806)” the binding was “binds”.
